PubChem BioAssay AID686937 | Drosophila RNAi Screening Center | 2013
Purpose: 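Genes in the fly needed for secretion of protein constitutively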 (primary screen). Cells: Drosophila S2 cells expressing secreted horseradish peroxidase. Knock-down reagent: long dsRNA against Drosophila genes. Timing: about 5.5 days (5 days dsRNA, then 12 h reporter induction). Conditions: reporter expression induced after 5 days of dsRNA, read 12 h later; inducer not stated. Measured: 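After 5 days of dsRNA and 12 h of reporter induction, medium peroxidase read by chemiluminescence and scored as per-plate z-score; higher values mean more reporter released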. Direction: z-score: higher = more reporter secreted into medium.
In all, the deposit lists about 23,000 reagents; below is an unselected part of those that have a named target and a result. 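Reduced-secretion tags in replicate 1 do not always agree with the z-scores; no criterion for assigning the tags was given.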 Names joined by + are all predicted targets of the reagent. Further read-outs or replicates are left out here. The record does not give: the amount of reagent.

| Gene | dsRNA | z-score, replicate 1 |
| --- | --- | --- |
| CG14983 | DRSC08441 | -0.72 |
| CG11581 | DRSC19407 | 0.39 |
| sov (small ovary) | DRSC17930 | 0.36 |
| CG30184 | DRSC22277 | -0.72 |
| CG40198 | DRSC21068 | -0.41 |
| CG14841 | DRSC14965 | 0.6 |
| Snap25 (Synaptosomal-associated protein 25kDa) | DRSC21228 | 0.69 |
| Snap25 (Synaptosomal-associated protein 25kDa) | DRSC21236 | 0.75 |
| asRNA:CR43159 + yellow-k | DRSC10851 | 0.49 |
| CG33262 | DRSC22893 | -0.27 |
| Best1 (Bestrophin 1) | DRSC16909 | 0.52 |
| tow (target of wingless) | DRSC10192 | -2.54 |
| lncRNA:CR32835 (long non-coding RNA:CR32835) | DRSC22693 | 0.32 |
| pit (pitchoune) | DRSC17025 | -1.7 |
| pit (pitchoune) | DRSC22798 | -0.07 |
| Myo61F (Myosin 61F) | DRSC22144 | -0.77 |
| Vhl (von Hippel-Lindau) | DRSC07716 | 0.35 |
| hth (homothorax) | DRSC16967 | 0.16 |
| E(spl)mbeta-HLH (Enhancer of split mbeta, helix-loop-helix) | DRSC16697 | 0.65 |
| CG14722 | DRSC14944 | 0.29 |
| CG42336 | DRSC05273 | 0.17 |
| CG42336 | DRSC06332 | 0.11 |
| CG42336 | DRSC06333 | -4.04 |
| CG12241 | DRSC14481 | -0.3 |
| Gyc32E (Guanylyl cyclase at 32E) | DRSC01154 | 0.55 |
| CR17567 (retired record) | DRSC02627 | -0.01 |
| CR17567 (retired record) | DRSC22537 | 0.27 |
| Ppn (Papilin) | DRSC15328 | 0.3 |
| CG34193 | DRSC05665 | 0.35 |
| Ing3 (Inhibitor of growth family, member 3) | DRSC20002 | -4.21 |
| mRpL46 (mitochondrial ribosomal protein L46) | DRSC08391 | -0.34 |
| JMJD5 (Jumonji domain containing 5) | DRSC08372 | 0.22 |
| kay (kayak) | DRSC13962 | -0.47 |
| kay (kayak) | DRSC15048 | -5.04 |
| kay (kayak) | DRSC16977 | 0.71 |
| thr (three rows) | DRSC07706 | 0.15 |
| CG11263 | DRSC09832 | 0.21 |
| qjt (quijote) | DRSC10060 | -0.21 |
| Nup160 + RfC38 | DRSC01997 | 0.32 |
| Mlf (Myelodysplasia/myeloid leukemia factor) | DRSC07472 | -2.03 |
| CG15571 | DRSC18059 | 0.45 |

8 consecutive records from above:
| Gene | dsRNA | z-score, replicate 1 |
| --- | --- | --- |
| CG33262 | DRSC22893 | -0.27 |
| Best1 (Bestrophin 1) | DRSC16909 | 0.52 |
| tow (target of wingless) | DRSC10192 | -2.54 |
| lncRNA:CR32835 (long non-coding RNA:CR32835) | DRSC22693 | 0.32 |
| pit (pitchoune) | DRSC17025 | -1.7 |
| pit (pitchoune) | DRSC22798 | -0.07 |
| Myo61F (Myosin 61F) | DRSC22144 | -0.77 |
| Vhl (von Hippel-Lindau) | DRSC07716 | 0.35 |

More records follow:
| Gene | dsRNA | z-score, replicate 1 |
| --- | --- | --- |
| mod(mdg4) + pre-mod(mdg4)-U | DRSC13476 | 0.08 |
| CG12853 | DRSC06193 | 0.27 |
| CG13321 | DRSC06358 | 0.24 |
| NLaz (Neural Lazarillo) | DRSC21521 | 0.36 |
| mnd (minidiscs) | DRSC11370 | 0.08 |
| sna (snail) | DRSC03613 | -0.36 |
| Stoml2 (Stomatin like 2) | DRSC04326 | 0.1 |
| Ttc7 (Tetratricopeptide repeat domain 7) | DRSC04836 | 0.24 |
| CG7376 | DRSC10829 | 0.15 |
| AlkB | DRSC19115 | 0.15 |
| CG6567 | DRSC16066 | 0.28 |
| Dph5 (Diphthamide methyltransferase) | DRSC16653 | -0.17 |
| CG15458 | DRSC20529 | -0.9 |
| CG18754 | DRSC15387 | 0.49 |
| CG33108 | DRSC21613 | -0.09 |
| CG6974 | DRSC16160 | 0.26 |
| CG17712 | DRSC00266 | 0.25 |
| CG10280 | DRSC12133 | 0.4 |
| Cks30A (Cyclin-dependent kinase subunit 30A) | DRSC03292 | 0.31 |
| Rcd5 (Reduction in Cnn dots 5) | DRSC08180 | -0.42 |
| CG13083 | DRSC02187 | 0.05 |
| CG30324 | DRSC22655 | 0.31 |
| Echs1 (Enoyl-CoA hydratase, short chain 1) | DRSC06999 | 0.6 |
| Lrrk (Leucine-rich repeat kinase) | DRSC15816 | 0.4 |
| Lrrk (Leucine-rich repeat kinase) | DRSC21971 | 0.33 |
| CNBP (CCHC-type zinc finger nucleic acid binding protein) | DRSC04116 | 0.35 |
| CNBP (CCHC-type zinc finger nucleic acid binding protein) | DRSC04419 | -0.8 |
| CNBP (CCHC-type zinc finger nucleic acid binding protein) | DRSC21317 | 1.24 |
| CG9662 | DRSC00723 | 0.18 |
| Khc-73 (Kinesin heavy chain 73) | DRSC07449 | 0.49 |
| mRpL2 (mitochondrial ribosomal protein L2) | DRSC10896 | -0.27 |
| f (forked) | DRSC19174 | 0.58 |
| f (forked) | DRSC19516 | -0.2 |
| f (forked) | DRSC20331 | -0.08 |
| CG10510 | DRSC11614 | -0.1 |
| Arl8 (ADP ribosylation factor-like 8) | DRSC16334 | -0.08 |
| CG34109 | DRSC02169 | -0.32 |
| CG34109 | DRSC02224 | -0.04 |
| CG34109 | DRSC02225 | -0.11 |
| r2d2 | DRSC03014 | -0.15 |
| CG17147 | DRSC10249 | 0.45 |
